# Experimental data published in the supplement of paper PMC4604168 (melanoma cell lines).
# This is one part of the list. Single values are uncertain, as repeats are few or missing.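 Imaging used 1,536-well plates; nuclei positive for cleaved PARP by antibody were divided by total DNA-stained nuclei to yield the apoptosis fraction. Doses for screening kept most cells viable, and cell lines differ markedly in resting and induced cleaved-PARP levels.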
# What was measured:
# Assay in all cases: cleaved PARP positive nuclei fraction relative to DMSO control; melanoma cells; higher = more apoptosis
# Conditions in all cases: library dose: low library concentration; 72 h
# MeWo = tested on: MeWo
# RPMI7951 = tested on: RPMI7951
# RVH-421 = tested on: RVH-421
# SkMel28 = tested on: SkMel28
# SkMel2 = tested on: SkMel2
# SkMel30 = tested on: SkMel30
# SkMel5 = tested on: SkMel5
# UACC257 = tested on: UACC257
# UACC62 = tested on: UACC62
# WM115 = tested on: WM115
# WM1716 = tested on: WM1716
# WM1745 = tested on: WM1745
# WM3526 = tested on: WM3526
# WM3619 = tested on: WM3619
# WM451Lu = tested on: WM451Lu
# MZ2-MEL = tested on: MZ2-MEL
Compound,cleaved PARP positive nuclei fraction (MeWo) [%],cleaved PARP positive nuclei fraction (RPMI7951) [%],cleaved PARP positive nuclei fraction (RVH-421) [%],cleaved PARP positive nuclei fraction (SkMel28) [%],cleaved PARP positive nuclei fraction (SkMel2) [%],cleaved PARP positive nuclei fraction (SkMel30) [%],cleaved PARP positive nuclei fraction (SkMel5) [%],cleaved PARP positive nuclei fraction (UACC257) [%],cleaved PARP positive nuclei fraction (UACC62) [%],cleaved PARP positive nuclei fraction (WM115) [%],cleaved PARP positive nuclei fraction (WM1716) [%],cleaved PARP positive nuclei fraction (WM1745) [%],cleaved PARP positive nuclei fraction (WM3526) [%],cleaved PARP positive nuclei fraction (WM3619) [%],cleaved PARP positive nuclei fraction (WM451Lu) [%],cleaved PARP positive nuclei fraction (MZ2-MEL) [%]
"CS(=O)(=O)CCNCc1ccc(-c2ccc3ncnc(Nc4ccc(OCc5cccc(F)c5)c(Cl)c4)c3c2)o1 [lapatinib] + COc1cc(Nc2ncc(F)c(Nc3ccc4c(n3)NC(=O)C(C)(C)O4)n2)cc(OC)c1OC [Tamatinib] (first compound 0.8 µM, partner dose 0.4 µM)",64,99,67.9,55.3,131,65.4,197,192,164,105,72.3,107,63.3,106,136,–
"CS(=O)(=O)CCNCc1ccc(-c2ccc3ncnc(Nc4ccc(OCc5cccc(F)c5)c(Cl)c4)c3c2)o1 [lapatinib] + O=c1cc(-c2cccc3c2Sc2ccccc2S3)oc(N2CCOCC2)c1 [KU55933] (first compound 0.8 µM, partner dose 1 µM)",135,116,64.4,21.5,49.8,77.4,86.5,93.3,91.8,159,141,89.3,92.9,96.6,145,–
"O=C(O)[C@@H]1[O][Sb](=[O])([O][Sb]2(=[O])[O][C@H]([C@H](O)CO)[C@H](O)[C@H](C(=O)O)[O]2)[O][C@H]([C@H](O)CO)[C@@H]1O (some centres not stated) [stibogluconate] + Nc1ncn([C@H]2C[C@H](O)[C@@H](CO)O2)c(=O)n1 [decitabine] (first compound 2 µM, partner dose 0.1 µM)",66.4,45.4,81.9,70.6,72.7,58.3,–,–,299,190,126,88.1,69.8,92,81.4,–
"CO[C@H]1C[C@@H]2CC[C@@H](C)[C@@](O)(O2)C(=O)C(=O)N2CCCC[C@H]2C(=O)O[C@H]([C@H](C)C[C@@H]2CC[C@@H](OCCO)[C@H](OC)C2)CC(=O)[C@H](C)/C=C(\C)[C@@H](O)[C@@H](OC)C(=O)[C@H](C)C[C@H](C)/C=C/C=C/C=C/1C [everolimus] + Nc1ncn([C@H]2C[C@H](O)[C@@H](CO)O2)c(=O)n1 [decitabine] (first compound 0.02 µM, partner dose 0.1 µM)",121,58.3,343,217,–,46.6,–,–,192,133,65.1,40.7,57.5,151,98.2,101
"O=C(O)[C@@H]1[O][Sb](=[O])([O][Sb]2(=[O])[O][C@H]([C@H](O)CO)[C@H](O)[C@H](C(=O)O)[O]2)[O][C@H]([C@H](O)CO)[C@@H]1O (some centres not stated) [stibogluconate] + N#Cc1c(O)c2c(-c3ccc(-c4ccccc4O)cc3)csc2[nH]c1=O [A769662] (first compound 2 µM, partner dose 2 µM)",160,206,151,116,86.6,138,153,44.3,90.6,87.8,101,77.5,465,99.7,134,–
"CN1CCN(c2ccc3nc(-c4c(N)c5c(F)cccc5[nH]c4=O)[nH]c3c2)CC1 [Dovitinib] + CO[C@H]1C[C@@H]2CC[C@@H](C)[C@@](O)(O2)C(=O)C(=O)N2CCCC[C@H]2C(=O)O[C@H]([C@H](C)C[C@@H]2CC[C@@H](OCCO)[C@H](OC)C2)CC(=O)[C@H](C)/C=C(\C)[C@@H](O)[C@@H](OC)C(=O)[C@H](C)C[C@H](C)/C=C/C=C/C=C/1C [everolimus] (first compound 0.1 µM, partner dose 0.02 µM)",207,74.3,80,341,–,56.3,–,–,520,181,87.9,125,34,112,64.3,124
"C[C@@H](Oc1cc(-c2cnn(C3CCNCC3)c2)cnc1N)c1c(Cl)ccc(F)c1Cl [Crizotinib] + CO[C@H]1C[C@@H]2CC[C@@H](C)[C@@](O)(O2)C(=O)C(=O)N2CCCC[C@H]2C(=O)O[C@H]([C@H](C)C[C@@H]2CC[C@@H](OCCO)[C@H](OC)C2)CC(=O)[C@H](C)/C=C(\C)[C@@H](O)[C@@H](OC)C(=O)[C@H](C)C[C@H](C)/C=C/C=C/C=C/1C [everolimus] (first compound 0.2 µM, partner dose 0.02 µM)",74.4,124,293,212,–,130,–,–,236,141,189,107,119,122,288,71.4
"Cc1cc(Nc2cc(N3CCN(C)CC3)nc(/C=C/c3ccccc3)n2)n[nH]1 + NCC(=O)Nc1ccc(-n2nc(C(F)(F)F)cc2-c2ccc3c(ccc4ccccc43)c2)cc1 [OSU03012] (first compound 0.04 µM, partner dose 1 µM)",62.2,78.2,66.5,305,74,136,225,141,210,88.4,90.3,85.7,115,124,112,–
"CO[C@H]1C[C@@H]2CC[C@@H](C)[C@@](O)(O2)C(=O)C(=O)N2CCCC[C@H]2C(=O)O[C@H]([C@H](C)C[C@@H]2CC[C@@H](OCCO)[C@H](OC)C2)CC(=O)[C@H](C)/C=C(\C)[C@@H](O)[C@@H](OC)C(=O)[C@H](C)C[C@H](C)/C=C/C=C/C=C/1C [everolimus] + Nc1nc(F)nc2c1ncn2[C@@H]1O[C@H](CO)[C@@H](O)[C@@H]1O [fludarabine] (first compound 0.02 µM, partner dose 0.2 µM)",522,94.1,89.9,886,–,3870,–,–,355,160,100,102,320,110,207,113
"Nc1ccn([C@@H]2O[C@H](CO)[C@@H](O)C2(F)F)c(=O)n1 [gemcitabine] + Cn1cc(/C=C2\C(=O)Nc3cccnc32)c2ccccc21 [GW441756] (first compound 0.0004 µM, partner dose 0.4 µM)",98.7,72.8,157,110,85,192,370,207,109,140,48.5,99.2,31.2,105,59.9,–
"CO[C@H]1C[C@@H]2CC[C@@H](C)[C@@](O)(O2)C(=O)C(=O)N2CCCC[C@H]2C(=O)O[C@H]([C@H](C)C[C@@H]2CC[C@@H](OCCO)[C@H](OC)C2)CC(=O)[C@H](C)/C=C(\C)[C@@H](O)[C@@H](OC)C(=O)[C@H](C)C[C@H](C)/C=C/C=C/C=C/1C [everolimus] + C#Cc1cccc(Nc2ncnc3cc(OCCOC)c(OCCOC)cc23)c1 [erlotinib] (first compound 0.02 µM, partner dose 0.8 µM)",139,118,114,194,–,174,–,–,226,154,359,115,48.1,96.7,71.8,45.7
"O=C(O)[C@@H]1[O][Sb](=[O])([O][Sb]2(=[O])[O][C@H]([C@H](O)CO)[C@H](O)[C@H](C(=O)O)[O]2)[O][C@H]([C@H](O)CO)[C@@H]1O (some centres not stated) [stibogluconate] + CO[C@H]1C[C@@H]2CC[C@@H](C)[C@@](O)(O2)C(=O)C(=O)N2CCCC[C@H]2C(=O)O[C@H]([C@H](C)C[C@@H]2CC[C@@H](OCCO)[C@H](OC)C2)CC(=O)[C@H](C)/C=C(\C)[C@@H](O)[C@@H](OC)C(=O)[C@H](C)C[C@H](C)/C=C/C=C/C=C/1C [everolimus] (first compound 2 µM, partner dose 0.02 µM)",56.5,37.4,155,170,–,41.7,–,–,144,140,44.2,96.4,76.7,95.4,223,97.9
"O=C(O)[C@@H]1[O][Sb](=[O])([O][Sb]2(=[O])[O][C@H]([C@H](O)CO)[C@H](O)[C@H](C(=O)O)[O]2)[O][C@H]([C@H](O)CO)[C@@H]1O (some centres not stated) [stibogluconate] + C[C@]1(c2nc3c(C(N)=O)cccc3[nH]2)CCCN1 [Veliparib] (first compound 2 µM, partner dose 1.4 µM)",55.1,114,38.9,86.3,–,85.9,–,–,111,211,38.3,97.4,154,87.3,73.8,51.3
"C[C@@H](Oc1cc(-c2cnn(C3CCNCC3)c2)cnc1N)c1c(Cl)ccc(F)c1Cl [Crizotinib] + O=C(Nc1cccc(Cl)c1)Nc1ncc(CCNc2ncnc3ccsc23)s1 [SNS314] (first compound 0.2 µM, partner dose 0.0008 µM)",54.4,280,80,43.1,161,116,139,71.4,146,172,91.3,80.9,59.9,226,365,–
"Nc1ncn([C@H]2C[C@H](O)[C@@H](CO)O2)c(=O)n1 [decitabine] + Cn1cncc1[C@@](N)(c1ccc(Cl)cc1)c1ccc2c(c1)c(-c1cccc(Cl)c1)cc(=O)n2C [tipifarnib] (first compound 0.1 µM, partner dose 0.01 µM)",47.5,65.2,137,55.1,215,104,69.5,60.3,209,157,130,100,320,105,63.8,–
"CO[C@H]1C[C@@H]2CC[C@@H](C)[C@@](O)(O2)C(=O)C(=O)N2CCCC[C@H]2C(=O)O[C@H]([C@H](C)C[C@@H]2CC[C@@H](OCCO)[C@H](OC)C2)CC(=O)[C@H](C)/C=C(\C)[C@@H](O)[C@@H](OC)C(=O)[C@H](C)C[C@H](C)/C=C/C=C/C=C/1C [everolimus] + OCc1c[nH]c2ccccc12 [Indole-3-carbinol] (first compound 0.02 µM, partner dose 0.8 µM)",104,268,242,126,–,94.6,–,–,301,160,40.9,109,98.1,168,65.8,516

# Part of the list above, as tab-separated lines.
Compound	cleaved PARP positive nuclei fraction (MeWo) [%]	cleaved PARP positive nuclei fraction (RPMI7951) [%]	cleaved PARP positive nuclei fraction (RVH-421) [%]	cleaved PARP positive nuclei fraction (SkMel28) [%]	cleaved PARP positive nuclei fraction (SkMel2) [%]	cleaved PARP positive nuclei fraction (SkMel30) [%]	cleaved PARP positive nuclei fraction (SkMel5) [%]	cleaved PARP positive nuclei fraction (UACC257) [%]	cleaved PARP positive nuclei fraction (UACC62) [%]	cleaved PARP positive nuclei fraction (WM115) [%]	cleaved PARP positive nuclei fraction (WM1716) [%]	cleaved PARP positive nuclei fraction (WM1745) [%]	cleaved PARP positive nuclei fraction (WM3526) [%]	cleaved PARP positive nuclei fraction (WM3619) [%]	cleaved PARP positive nuclei fraction (WM451Lu) [%]	cleaved PARP positive nuclei fraction (MZ2-MEL) [%]
CO[C@H]1C[C@@H]2CC[C@@H](C)[C@@](O)(O2)C(=O)C(=O)N2CCCC[C@H]2C(=O)O[C@H]([C@H](C)C[C@@H]2CC[C@@H](OCCO)[C@H](OC)C2)CC(=O)[C@H](C)/C=C(\C)[C@@H](O)[C@@H](OC)C(=O)[C@H](C)C[C@H](C)/C=C/C=C/C=C/1C [everolimus] + C#Cc1cccc(Nc2ncnc3cc(OCCOC)c(OCCOC)cc23)c1 [erlotinib] (first compound 0.02 µM, partner dose 0.8 µM)	139	118	114	194	–	174	–	–	226	154	359	115	48.1	96.7	71.8	45.7
O=C(O)[C@@H]1[O][Sb](=[O])([O][Sb]2(=[O])[O][C@H]([C@H](O)CO)[C@H](O)[C@H](C(=O)O)[O]2)[O][C@H]([C@H](O)CO)[C@@H]1O (some centres not stated) [stibogluconate] + CO[C@H]1C[C@@H]2CC[C@@H](C)[C@@](O)(O2)C(=O)C(=O)N2CCCC[C@H]2C(=O)O[C@H]([C@H](C)C[C@@H]2CC[C@@H](OCCO)[C@H](OC)C2)CC(=O)[C@H](C)/C=C(\C)[C@@H](O)[C@@H](OC)C(=O)[C@H](C)C[C@H](C)/C=C/C=C/C=C/1C [everolimus] (first compound 2 µM, partner dose 0.02 µM)	56.5	37.4	155	170	–	41.7	–	–	144	140	44.2	96.4	76.7	95.4	223	97.9
